In paper doi:10.1101/2025.07.24.666583:
Results are given in words; binding and its absence hold for the method and conditions named. Binding seen in cells or lysates may run through a third protein. Some binding calls cover weakened binding; strength is not graded here.

By UniProt entry, the sequences of proteins in these tests, tags left out.
UniProt Q8N3C0: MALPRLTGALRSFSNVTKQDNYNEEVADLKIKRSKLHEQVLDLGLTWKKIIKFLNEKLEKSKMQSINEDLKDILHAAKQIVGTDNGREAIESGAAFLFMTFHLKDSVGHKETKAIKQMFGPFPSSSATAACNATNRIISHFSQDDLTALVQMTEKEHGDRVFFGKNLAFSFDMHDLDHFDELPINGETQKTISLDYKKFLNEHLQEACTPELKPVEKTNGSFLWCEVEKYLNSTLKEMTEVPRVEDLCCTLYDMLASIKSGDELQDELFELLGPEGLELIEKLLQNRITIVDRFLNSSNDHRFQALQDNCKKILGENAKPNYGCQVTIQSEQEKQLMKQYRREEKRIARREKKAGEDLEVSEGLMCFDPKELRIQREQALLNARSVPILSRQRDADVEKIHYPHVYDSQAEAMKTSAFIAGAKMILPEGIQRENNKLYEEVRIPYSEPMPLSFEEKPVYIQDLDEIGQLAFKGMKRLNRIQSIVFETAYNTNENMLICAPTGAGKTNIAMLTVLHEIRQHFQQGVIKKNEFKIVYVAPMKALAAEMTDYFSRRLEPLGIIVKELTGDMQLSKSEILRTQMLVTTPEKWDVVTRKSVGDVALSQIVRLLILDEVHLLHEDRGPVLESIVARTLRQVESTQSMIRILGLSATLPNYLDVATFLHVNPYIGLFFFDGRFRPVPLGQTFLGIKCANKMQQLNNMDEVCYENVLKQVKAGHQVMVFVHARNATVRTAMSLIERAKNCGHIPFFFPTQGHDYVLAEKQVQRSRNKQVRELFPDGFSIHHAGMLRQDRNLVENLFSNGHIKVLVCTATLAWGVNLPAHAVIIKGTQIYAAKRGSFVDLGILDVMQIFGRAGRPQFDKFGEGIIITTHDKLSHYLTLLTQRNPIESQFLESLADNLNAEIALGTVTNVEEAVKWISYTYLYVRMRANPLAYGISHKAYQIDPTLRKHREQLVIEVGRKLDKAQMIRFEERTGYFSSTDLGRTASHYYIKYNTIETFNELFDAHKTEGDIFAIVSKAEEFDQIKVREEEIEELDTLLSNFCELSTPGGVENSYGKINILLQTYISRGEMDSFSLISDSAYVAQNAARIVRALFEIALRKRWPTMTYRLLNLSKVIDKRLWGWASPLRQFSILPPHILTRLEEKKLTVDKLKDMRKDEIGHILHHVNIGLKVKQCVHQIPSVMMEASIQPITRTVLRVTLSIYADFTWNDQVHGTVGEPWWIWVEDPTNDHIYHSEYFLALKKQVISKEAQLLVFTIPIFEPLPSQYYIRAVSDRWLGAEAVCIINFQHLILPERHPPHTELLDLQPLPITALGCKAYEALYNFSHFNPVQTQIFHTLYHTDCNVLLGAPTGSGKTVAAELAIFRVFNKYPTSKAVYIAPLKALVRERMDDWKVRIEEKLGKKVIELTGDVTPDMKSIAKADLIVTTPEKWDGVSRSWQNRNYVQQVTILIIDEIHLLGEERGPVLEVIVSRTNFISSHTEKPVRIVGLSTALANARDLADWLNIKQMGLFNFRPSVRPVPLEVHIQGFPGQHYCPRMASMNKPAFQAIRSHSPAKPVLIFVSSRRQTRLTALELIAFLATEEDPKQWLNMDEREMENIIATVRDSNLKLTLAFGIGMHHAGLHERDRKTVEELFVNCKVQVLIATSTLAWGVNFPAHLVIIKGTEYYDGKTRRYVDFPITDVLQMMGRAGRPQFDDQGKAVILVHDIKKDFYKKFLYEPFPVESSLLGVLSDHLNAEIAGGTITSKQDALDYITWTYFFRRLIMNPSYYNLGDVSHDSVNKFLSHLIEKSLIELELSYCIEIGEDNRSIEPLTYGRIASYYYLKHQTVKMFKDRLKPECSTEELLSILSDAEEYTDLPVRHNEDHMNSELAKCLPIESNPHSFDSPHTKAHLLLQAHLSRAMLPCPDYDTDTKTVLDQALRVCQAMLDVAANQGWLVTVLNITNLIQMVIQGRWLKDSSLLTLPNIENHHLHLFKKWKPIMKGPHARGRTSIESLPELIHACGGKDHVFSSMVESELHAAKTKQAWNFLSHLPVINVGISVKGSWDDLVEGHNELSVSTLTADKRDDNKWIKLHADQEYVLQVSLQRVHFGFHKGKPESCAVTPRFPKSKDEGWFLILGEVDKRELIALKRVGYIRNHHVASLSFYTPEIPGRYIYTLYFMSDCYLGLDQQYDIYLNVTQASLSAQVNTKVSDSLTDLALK
UniProt P27694: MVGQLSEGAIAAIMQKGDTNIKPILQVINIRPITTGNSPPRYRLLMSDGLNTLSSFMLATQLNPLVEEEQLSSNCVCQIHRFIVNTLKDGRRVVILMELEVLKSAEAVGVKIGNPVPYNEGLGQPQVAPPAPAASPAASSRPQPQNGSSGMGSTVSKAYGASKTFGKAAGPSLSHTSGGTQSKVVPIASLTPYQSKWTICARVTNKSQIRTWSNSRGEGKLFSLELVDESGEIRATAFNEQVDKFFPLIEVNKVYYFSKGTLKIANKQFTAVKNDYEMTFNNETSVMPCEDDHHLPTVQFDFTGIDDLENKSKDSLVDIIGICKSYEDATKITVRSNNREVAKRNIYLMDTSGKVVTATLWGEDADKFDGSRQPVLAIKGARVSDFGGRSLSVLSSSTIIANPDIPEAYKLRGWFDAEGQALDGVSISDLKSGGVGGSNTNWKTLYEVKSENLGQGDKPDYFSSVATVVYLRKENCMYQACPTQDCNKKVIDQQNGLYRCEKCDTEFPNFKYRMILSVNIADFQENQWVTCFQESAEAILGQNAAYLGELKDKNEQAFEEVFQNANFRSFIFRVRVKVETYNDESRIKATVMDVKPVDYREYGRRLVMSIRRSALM
UniProt P15927: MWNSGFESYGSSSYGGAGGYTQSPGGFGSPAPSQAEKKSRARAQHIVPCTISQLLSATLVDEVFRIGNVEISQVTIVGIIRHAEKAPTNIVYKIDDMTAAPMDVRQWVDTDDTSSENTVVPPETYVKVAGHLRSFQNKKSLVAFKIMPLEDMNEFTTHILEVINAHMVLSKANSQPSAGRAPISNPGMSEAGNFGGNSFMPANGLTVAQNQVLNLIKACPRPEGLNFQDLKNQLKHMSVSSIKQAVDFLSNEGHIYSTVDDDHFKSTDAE

Tests used:
[1] = molecular target: T1, endogenous ASCC2 (HCT116) (human (endogenous in HCT116)) (UniProt Q9H1I8); assay: co-IP; endogenous proteins, HCT116 lysate in NETN buffer; IP with anti-ASCC2 or anti-ASCC3 antibody and protein G beads, washes in NETN with 300 mM NaCl; IgG as control
T1 sequence: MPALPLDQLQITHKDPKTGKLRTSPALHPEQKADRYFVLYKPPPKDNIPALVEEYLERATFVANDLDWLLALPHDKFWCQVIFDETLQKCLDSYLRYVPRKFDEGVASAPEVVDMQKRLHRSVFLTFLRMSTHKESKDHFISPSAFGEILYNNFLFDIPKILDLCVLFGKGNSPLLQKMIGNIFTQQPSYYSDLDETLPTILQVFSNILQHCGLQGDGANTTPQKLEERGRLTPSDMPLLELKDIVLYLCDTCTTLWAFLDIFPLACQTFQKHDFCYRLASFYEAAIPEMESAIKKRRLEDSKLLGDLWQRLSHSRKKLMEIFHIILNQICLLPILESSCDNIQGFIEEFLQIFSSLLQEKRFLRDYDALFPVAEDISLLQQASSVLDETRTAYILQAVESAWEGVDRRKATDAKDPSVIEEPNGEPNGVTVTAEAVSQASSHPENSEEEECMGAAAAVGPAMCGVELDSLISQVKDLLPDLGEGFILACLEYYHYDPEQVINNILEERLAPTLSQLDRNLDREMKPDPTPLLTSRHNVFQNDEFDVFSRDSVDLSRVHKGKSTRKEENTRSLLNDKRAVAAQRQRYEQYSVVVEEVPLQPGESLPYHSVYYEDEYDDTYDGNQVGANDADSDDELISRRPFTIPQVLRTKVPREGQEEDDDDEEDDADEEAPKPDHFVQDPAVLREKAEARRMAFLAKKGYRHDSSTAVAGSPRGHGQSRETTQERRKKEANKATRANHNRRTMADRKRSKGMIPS

[2] = molecular target: endogenous ASCC3 (HCT116) (human (endogenous in HCT116)) (UniProt Q8N3C0); assay: as above
HA-RPA70 = HA-RPA70 (UniProt P27694); assay: co-IP; anti-HA IP from HEK293T expressing vector or HA-RPA70, endogenous ASCC2/ASCC3 blotted; with or without 4 mM HU for 4 h; with or without DNase I (50 units) in the lysate
Myc-ASCC3 (human) = Myc-ASCC3 (human) (UniProt Q8N3C0); assay: co-IP; anti-Myc IP from HEK293T co-transfected with epitope-tagged RPA32/RPA70 and epitope-tagged full length ASCC3 (DNA 1:3); vector alone as control
Myc-RPA70 = Myc-RPA70 (UniProt P27694); assay: as above

Substance: endogenous RPA32 (HCT116) (from UniProt P15927 1-270)
- binding [1]: binds

Substance: endogenous RPA70 (HCT116) (from UniProt P27694 1-616)
- binding [2]: binds
- binding [1]: binds

Substance: endogenous ASCC3 (HEK293T) (from UniProt Q8N3C0 1-2202)
- binding (HA-RPA70): binds

Substance: HA-RPA70 (from UniProt P27694 1-616)
- binding (Myc-ASCC3 (human)): binds

Substance: eGFP-ASCC3 (from UniProt Q8N3C0 1-2202)
- binding (Myc-RPA70): binds
